Experimental data: PubChem BioAssay AID686943 (Drosophila RNAi Screening Center, 2013)

Screen: 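Search across the genome for regulators of signalling from receptor tyrosine kinase to ERK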 (primary screen)
System: Drosophila S2R+ haemocyte-like cells expressing YFP-tagged ERK (Rolled)
Knock-down reagent: long dsRNA against Drosophila genes
Treatment: insulin stimulation versus unstimulated cells; dose and duration not given
Measurement: 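Antibody staining for doubly phosphorylated ERK divided by ERK-YFP signal, as plate z-scores, in insulin-treated and untreated cells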
Direction: replicate 1, z-score of dpERK with insulin and replicate 2, z-score of dpERK with insulin: higher = more active ERK per ERK-YFP after insulin; replicate 1, z-score of dpERK under basal conditions: higher = more basal active ERK per ERK-YFP; replicate 1, z-score of ERK-YFP with insulin: higher = more YFP-tagged ERK signal
The screen tested about 23,000 reagents; below is an unselected part of those with a known target gene and a result. 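Extra replicates exist only for a retested subset of genes; insulin dose and duration not given; both raised and lowered dpERK matter.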 Reagents against one gene are numbered here. A plus sign joins genes that one reagent is predicted to hit. Not stated in the record: the amount of reagent, the time to read-out.

| gene | dsRNA no. | replicate 1, z-score of dpERK with insulin | replicate 2, z-score of dpERK with insulin | replicate 1, z-score of dpERK under basal conditions | replicate 1, z-score of ERK-YFP with insulin |
| --- | --- | --- | --- | --- | --- |
| CG14971 | 1 | -0.19 | 0.13 | -0.26 | 0.27 |
| neb (nebbish) | 1 | -1.94 | -0.38 | 0.07 | 0.93 |
| Cpr49Ag (Cuticular protein 49Ag) | 1 | 0.95 | 0.13 | 0.08 | -0.12 |
| CG2200 | 1 | 0.01 | 0.15 | 0.55 | -0.03 |
| CG5623 | 1 | 1.08 | 1.77 | -0.83 | -0.51 |
| daed (daedalus) | 1 | -0.49 | 0.05 | 0.25 | -0.3 |
| PCNA (Proliferating cell nuclear antigen) | 1 | -0.72 | 0.18 | -2.39 | -3.21 |
| CG32773 (retired record) | 1 | -0.9 | -1.29 | -0.23 | -0.26 |
| unc79 (uncoordinated 79) | 1 | -0.44 | -0.03 | -0.64 | 0.51 |
| CkIIalpha (casein kinase IIalpha) | 1 | -1.53 | -0.66 | 0.66 | -1.74 |
| Alg11 (ALG11, alpha-1,2-mannosyltransferase) | 1 | -0.13 | -0.07 | 1.12 | 0.22 |
| CG7044 | 1 | -0.91 | -0.17 | -0.17 | -0.45 |
| CG14427 | 1 | 1.2 | 0.46 | -1.35 | -0.22 |
| Elp6 (Elongator complex protein 6) | 1 | -0.49 | 0.23 | -0.29 | -0.72 |
| CheB38c (Chemosensory protein B 38c) | 1 | -0.64 | -0.6 | -0.7 | -0.96 |
| CG10560 | 1 | -0.13 | -0.05 | 0.1 | 0.39 |
| CG43092 | 1 | 0.82 | -0.34 | 0.32 | 0.16 |
| CG14408 | 1 | -0.13 | 0.98 | 0.19 | 0.58 |
| CG8958 | 1 | 0.07 | -0.39 | -0.08 | 0.18 |
| CG8379 | 1 | 0.46 | 1.45 | 0.65 | 0.54 |
| CG6051 | 1 | 1.98 | -0.15 | -0.2 | -1.71 |
| Rrp4 | 1 | 0.44 | 0.32 | 0.77 | -0.37 |
| Vm26Ab (Vitelline membrane 26Ab) | 1 | 0.3 | 0.55 | 1.37 | 0.35 |
| CG9899 | 1 | -0.82 | 1.06 | 0.05 | 0.54 |
| r-l (rudimentary-like) | 1 | -0.58 | 0.52 | -0.76 | -0.01 |
| r-l (rudimentary-like) | 2 | 0.76 | 0.71 | 0.98 | 0.42 |
| Adgf-E (Adenosine deaminase-related growth factor E) | 1 | -0.44 | -1.25 | -0.24 | 0.27 |
| lncRNA:CR42735 (retired record) | 1 | -0.24 | -0.59 | -0.99 | 0.18 |
| CG8519 | 1 | -0.18 | 0.01 | 0.3 | -0.02 |
| Pal1 (Peptidyl-alpha-hydroxyglycine-alpha-amidating lyase 1) | 1 | 0.04 | 0.27 | -0.07 | -0.09 |
| Sin3A | 1 | 3.37 | 1.93 | -2.27 | 0.31 |
| CG15528 | 1 | 0.26 | 0.18 | 0.26 | 0.91 |
| CG8320 + ATPCL | 1 | 0.86 | 0.03 | 0.46 | 0.17 |
| Cwc25 | 1 | 1.16 | -0.13 | 0.57 | -0.28 |
| CG33521 | 1 | 0.82 | 0.48 | -1.52 | -0.55 |
| CG33521 | 2 | 0.49 | -1.25 | -0.19 | 0.11 |
| CG33521 | 3 | 0.15 | -0.8 | -0.85 | 0.39 |
| ver (verrocchio) | 1 | -0.05 | 0.65 | -1.31 | 0.67 |
| Clp (Clipper) | 1 | 2.13 | 3.32 | 0.69 | -1.57 |

4 successive entries already listed:
| gene | dsRNA no. | replicate 1, z-score of dpERK with insulin | replicate 2, z-score of dpERK with insulin | replicate 1, z-score of dpERK under basal conditions | replicate 1, z-score of ERK-YFP with insulin |
| --- | --- | --- | --- | --- | --- |
| CG32773 (retired record) | 1 | -0.9 | -1.29 | -0.23 | -0.26 |
| unc79 (uncoordinated 79) | 1 | -0.44 | -0.03 | -0.64 | 0.51 |
| CkIIalpha (casein kinase IIalpha) | 1 | -1.53 | -0.66 | 0.66 | -1.74 |
| Alg11 (ALG11, alpha-1,2-mannosyltransferase) | 1 | -0.13 | -0.07 | 1.12 | 0.22 |
